Out of some 310,000 compounds screened, about 17,000 (5.5%) were called active. The inconclusive results got no clear call from the source; some entries with a clear call stand among them for comparison. Calls come from the whole dose curve; as a rule, active = well fitted inhibition curve with a large enough effect; inconclusive = small, poorly fitted or top-dose-only effect, or effect the other way; inactive = no such curve, though single readings can be large or run the other way. A potency beside an inconclusive call is a rough fit, not a confirmed value.
Target: Nuclear receptor ROR-gamma (Mus musculus) (UniProt P51450)
Assay: qHTS for inhibitors of ROR gamma transcriptional activity; note: nearly all actives have a fitted effect of over 60% in size
Conditions: Drosophila S2 Gal4-RORgamma UAS-luciferase reporter, 20 h; activity change, negative = inhibition: at 53.6 µM (top of the series)
Method in brief: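 Schneider cells (Drosophila), stable Gal4 DBD–ROR gamma + UAS-luc; 1 hr cmpd preincubation; Cu2+ induction 700 uM final; 20 hr ambient; luminescence.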
% is set by controls: 0 for no effect and ±100 for the full control effect; potency is the fitted concentration of half-maximal effect.

Sequences of proteins named here, by UniProt entry; tags and fusion partners are left off. A change or cut given only in a name is not applied to a line headed by its entry.
UniProt P51450: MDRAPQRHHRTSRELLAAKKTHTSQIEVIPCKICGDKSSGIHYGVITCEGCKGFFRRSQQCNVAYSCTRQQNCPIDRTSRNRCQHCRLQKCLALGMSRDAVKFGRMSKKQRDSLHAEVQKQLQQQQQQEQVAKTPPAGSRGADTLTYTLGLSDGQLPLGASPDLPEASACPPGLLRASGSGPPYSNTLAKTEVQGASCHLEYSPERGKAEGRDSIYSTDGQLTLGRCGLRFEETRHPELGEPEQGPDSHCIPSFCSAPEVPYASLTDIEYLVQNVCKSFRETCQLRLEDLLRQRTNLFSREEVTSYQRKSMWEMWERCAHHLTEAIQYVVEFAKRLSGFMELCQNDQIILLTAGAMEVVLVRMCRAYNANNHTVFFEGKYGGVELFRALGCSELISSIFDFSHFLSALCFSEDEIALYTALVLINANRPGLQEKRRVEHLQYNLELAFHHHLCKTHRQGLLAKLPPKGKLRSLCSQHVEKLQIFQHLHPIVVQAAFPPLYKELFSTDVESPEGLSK

Potency, inconclusive:
Cc1ccc(C)c(N2CCN(C(=O)Cn3c(=O)oc4cc(S(=O)(=O)N5CCCC5)ccc43)CC2)c1 35.5 µM [activator, single point], CCN1CCN(Cc2ccc(NC(=O)c3ccc(C)c(NC(=O)c4nccn4C)c3)cc2C(F)(F)F)CC1 35.5 µM [inhibitor, single point], Cc1ccccc1NC(=S)N1CCN(Cc2ccc3c(c2)OCO3)CC1 20 µM [inhibitor, single point], CC1(C(=O)NC(=S)N(Cc2ccccc2)c2ccccn2)CC1(Cl)Cl (stereo unspecified) 22.4 µM [inhibitor, single point], CCOc1cc(CNC(C)(C)CO)cc(Br)c1OCc1ccc(Cl)cc1Cl 6.31 µM [inhibitor, single point], CC(=O)c1cccc(NC(=S)N2CCN(S(=O)(=O)c3ccccc3)CC2)c1 5.62 µM [activator, single point], CCOc1ccc2oc(-c3ccccc3)c(C(=O)N3CCN(CCO)CC3)c2c1 28.2 µM [inhibitor, single point], C/C(=N\NC(=O)C(=O)Nc1cccc(Cl)c1)c1ccncc1 0.562 µM [activator, full curve], CCOC(=O)Cc1csc(N/N=C/c2ccc(Cl)cc2)n1 1 µM [inhibitor, full curve], O=c1c(Cc2ccc(F)cc2)c(O)ccn1Cc1cccc(Cl)c1 12.6 µM [activator, partial curve]

Potency, active:
Cc1cc(NC(=S)NC(=O)CC(C)C)ccc1Br 2.82 µM, O=C(NC(=S)Nc1ccc(Cl)cc1)c1ccccc1 20 µM, COc1ccc(C(C)NC(=S)NCc2ccc(F)cc2)cc1 (stereo unspecified) 5.62 µM

Potency, inactive:
COC(=O)N1CCC2(CCCN(Cc3ccc(C#N)cc3)C2)CC1, CC(/C=N/NC(=O)c1nnn(-c2nonc2N)c1C(C)C)=C\c1ccccc1, CC1CCC(NC(=O)C2CCN(S(=O)(=O)c3cccc4nonc34)CC2)CC1 (stereo unspecified), CCCn1c(SCC(=O)Nc2ccccc2OC)nnc1-c1ccco1, Clc1ccc(Cn2ncc3c(N4CCCCC4)ncnc32)c(Cl)c1, CC(CNS(=O)(=O)c1ccccc1)(c1ccccc1)N1CCCCC1 (stereo unspecified), CN(C)S(=O)(=O)c1ccc(-c2csc(N/N=C/c3ccc(O)cc3)n2)cc1

Activity change, negative = inhibition, inactive:
CC(C)NC(=O)c1ccc2c(c1)nnn2C 4.57% [at 0.365 µM]
